B1: SFB-tagged human HDGFRP3 (wild type) [human] / 53BP1, endogenous [human (endogenous in HEK293T, U2OS, MCF10A)] (parent complex)
chain 1: MARPRPREYKAGDLVFAKMKGYPHWPARIDELPEGAVKPPANKYPIFFFGTHETAFLGPKDLFPYKEYKDKFGKSNKRKGFNEGLWEIENNPGVKFTGYQAIQQQSSSETEGEGGNTADASSEEEGDRVEEDGKGKRKNEKAGSKRKKSYTSKKSSKQSRKSPGDEDDKDCKEEENKSSSEGGDAGNDTRNTTSDLQKTSEGT
chain 2: MDPTGSQLDSDFSQQDTPCLIIEDSQPESQVLEDDSGSHFSMLSRHLPNLQTHKENPVLDVVSNPEQTAGEERGDGNSGFNEHLKENKVADPVDSSNLDTCGSISQVIEQLPQPNRTSSVLGMSVESAPAVEEEKGEELEQKEKEKEEDTSGNTTHSLGAEDTASSQLGFGVLELSQSQDVEENTVPYEVDKEQLQSVTTNSGYTRLSDVDANTAIKHEEQSNEDIPIAEQSSKDIPVTAQPSKDVHVVKEQNPPPARSEDMPFSPKASVAAMEAKEQLSAQELMESGLQIQKSPEPEVLSTQEDLFDQSNKTVSSDGCSTPSREEGGCSLASTPATTLHLLQLSGQRSLVQDSLSTNSSDLVAPSPDAFRSTPFIVPSSPTEQEGRQDKPMDTSVLSEEGGEPFQKKLQSGEPVELENPPLLPESTVSPQASTPISQSTPVFPPGSLPIPSQPQFSHDIFIPSPSLEEQSNDGKKDGDMHSSSLTVECSKTSEIEPKNSPEDLGLSLTGDSCKLMLSTSEYSQSPKMESLSSHRIDEDGENTQIEDTEPMSPVLNSKFVPAENDSILMNPAQDGEVQLSQNDDKTKGDDTDTRDDISILATGCKGREETVAEDVCIDLTCDSGSQAVPSPATRSEALSSVLDQEEAMEIKEHHPEEGSSGSEVEEIPETPCESQGEELKEENMESVPLHLSLTETQSQGLCLQKEMPKKECSEAMEVETSVISIDSPQKLAILDQELEHKEQEAWEEATSEDSSVVIVDVKEPSPRVDVSCEPLEGVEKCSDSQSWEDIAPEIEPCAENRLDTKEEKSVEYEGDLKSGTAETEPVEQDSSQPSLPLVRADDPLRLDQELQQPQTQEKTSNSLTEDSKMANAKQLSSDAEAQKLGKPSAHASQSFCESSSETPFHFTLPKEGDIIPPLTGATPPLIGHLKLEPKRHSTPIGISNYPESTIATSDVMSESMVETHDPILGSGKGDSGAAPDVDDKLCLRMKLVSPETEASEESLQFNLEKPATGERKNGSTAVAESVASPQKTMSVLSCICEARQENEARSEDPPTTPIRGNLLHFPSSQGEEEKEKLEGDHTIRQSQQPMKPISPVKDPVSPASQKMVIQGPSSPQGEAMVTDVLEDQKEGRSTNKENPSKALIERPSQNNIGIQTMECSLRVPETVSAATQTIKNVCEQGTSTVDQNFGKQDATVQTERGSGEKPVSAPGDDTESLHSQGEEEFDMPQPPHGHVLHRHMRTIREVRTLVTRVITDVYYVDGTEVERKVTEETEEPIVECQECETEVSPSQTGGSSGDLGDISSFSSKASSLHRTSSGTSLSAMHSSGSSGKGAGPLRGKTSGTEPADFALPSSRGGPGKLSPRKGVSQTGTPVCEEDGDAGLGIRQGGKAPVTPRGRGRRGRPPSRTTGTRETAVPGPLGIEDISPNLSPDDKSFSRVVPRVPDSTRRTDVGAGALRRSDSPEIPFQAAAGPSDGLDASSPGNSFVGLRVVAKWSSNGYFYSGKITRDVGAGKYKLLFDDGYECDVLGKDILLCDPIPLDTEVTALSEDEYFSAGVVKGHRKESGELYYSIEKEGQRKWYKRMAVILSLEQGNRLREQYGLGPYEAVTPLTKAADISLDNLVEGKRKRRSNVSSPATPTASSSSSTTPTRKITESPRASMGVLSGKRKLITSEEERSPAKRGRKSATVKPGAVGAGEFVSPCESGDNTGEPSALEEQRGPLPLNKTLFLGYAFLLTMATTSDKLASRSKLPDGPTGSSEEEEEFLEIPPFNKQYTESQLRAGAGYILEDFNEAQCNTAYQCLLIADQHCRTRKYFLCLASGIPCVSHVWVHDSCHANQLQNYRNYLLPAGYSLEEQRILDWQPRENPFQNLKVLLVSDQQQNFLELWSEILMTGGAASVKQHHSSAHNKDIALGVFDVVVTDPSCPASVLKCAEALQLPVVSQEWVIQCLIVGERIGFKQHPKYKHDYVSH

Variants of: B1
Experiment: proximity ligation assay (PLA); U2OS cells; 100 cells per experiment, n = 3; parent: 33; read off a plot
Work on chain 1 Y22A, chain 1 W25A yielded a response of about 5 dots/Nucleus.

— article PMC10018360 (2023)
